# Experiments:
# [1] = test system: A549 (non-small cell lung carcinoma); assay: in vitro cytotoxicity / proliferation, A549; format: cell-based, human; conditions: read-out: IC50 (inhibits proliferation of 50% of cells)
# Excerpt: (§1) For IC50 determination, the human cancer lines A549 (non-small cell lung carcinoma), HT29 (colon adenocarcinoma) and MCF-7 (breast adenocarcinoma), and a healthy mouse fibroblast cell line (BALB/3T3), were used. All tested cell lines were obtained from the American Type Culture Collection (Rockville, MD, USA) and maintained at the Cell Culture Collection of the Hirszfeld Institute of Immunology and Experimental Therapy (Wrocław, Poland). The details of the experimental conditions were described in [69]. […] IC50 values were calculated separately for each experiment, which was repeated 3–5 times.
# [2] = test system: MCF-7 (breast adenocarcinoma); assay: in vitro cytotoxicity / proliferation, MCF-7; format: cell-based, human; conditions: read-out: IC50 (inhibits proliferation of 50% of cells)
# Excerpt: as §1
smiles,measurement,setting,value
"N.N.[Cl][Pt][Cl] [cisplatin, reference compound]",IC50,[1],3.03 ± 0.2 µM
same,IC50,[2],8.2 ± 0.48 µM
